Laboratory results from article PMC12806337.
These are yes or no findings as the source states them, for the method shown. Binding seen in cells or lysates may run through a third protein. These calls come from enrichment with a bait or labelling near it, and not all partners need be listed.

The chains behind the UniProt entries cited, without tags or fusion partners.
UniProt Q93034: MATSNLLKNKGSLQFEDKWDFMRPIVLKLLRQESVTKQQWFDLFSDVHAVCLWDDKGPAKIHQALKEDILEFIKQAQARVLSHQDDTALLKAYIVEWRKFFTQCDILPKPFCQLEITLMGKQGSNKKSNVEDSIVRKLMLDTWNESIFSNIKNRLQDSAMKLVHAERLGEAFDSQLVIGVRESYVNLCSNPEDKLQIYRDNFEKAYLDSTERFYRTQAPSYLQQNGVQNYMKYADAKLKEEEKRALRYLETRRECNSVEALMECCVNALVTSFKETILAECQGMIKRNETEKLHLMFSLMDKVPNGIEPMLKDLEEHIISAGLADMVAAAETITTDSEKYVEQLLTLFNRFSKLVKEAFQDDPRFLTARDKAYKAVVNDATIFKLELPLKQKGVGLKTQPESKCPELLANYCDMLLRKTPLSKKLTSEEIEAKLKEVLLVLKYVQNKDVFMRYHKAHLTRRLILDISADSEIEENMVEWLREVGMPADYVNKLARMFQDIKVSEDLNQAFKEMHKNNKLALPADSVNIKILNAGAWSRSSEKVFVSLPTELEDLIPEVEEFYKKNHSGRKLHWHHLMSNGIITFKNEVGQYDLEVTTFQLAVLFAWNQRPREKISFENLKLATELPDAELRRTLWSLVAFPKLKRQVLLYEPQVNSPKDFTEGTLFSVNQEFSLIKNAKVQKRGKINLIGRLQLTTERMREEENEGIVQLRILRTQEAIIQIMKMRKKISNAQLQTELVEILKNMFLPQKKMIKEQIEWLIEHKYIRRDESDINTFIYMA
UniProt Q9NYG5: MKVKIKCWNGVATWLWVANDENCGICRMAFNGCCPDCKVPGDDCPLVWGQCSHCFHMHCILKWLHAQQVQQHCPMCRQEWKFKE

Molecular target: SBP-S-CUL5 (UniProt Q93034)
Assay: affinity purification with mass spectrometry; tandem affinity purification of SBP-S-CUL5 from MIA PaCa-2 lysate (NETN buffer: 0.5% NP-40, 50 mM Tris pH 8, 0.1 M NaCl, 2 mM EDTA): Streptavidin Sepharose, biotin elution, then S-protein agarose; SDS-PAGE and LC-MS/MS; mock vector pLVX as control

binding: binds
Substance: endogenous APC11 (from UniProt Q9NYG5 1-84)
